Measurements reported in PubChem BioAssay AID1671195 (Yale University, 2021)
Here is one part, drawn at random, of about 22,000 reagents tested. About 1,510 of them (6.9%) count as active. 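Active includes knockdowns raising or lowering LDL uptake; positive z-scores mean more uptake, negative mean less.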

- Test: 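Knockdowns that increase or decrease uptake of fluorescent LDL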 (primary screen)
- System: human Huh7 hepatoma cells
- Knock-down reagent: siRNA pool against human genes, 18 nM
- Duration: about 2 to 2.5 days of knockdown, then 8 h LDL uptake
- Treatment: DiI-labelled LDL at 30 µg/ml for 8 h, in lipoprotein-deficient serum medium
- Read-out: 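Per-cell DiI-LDL intensity by automated imaging; well means scaled to the plate median and given as a robust z-score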
- Direction: robust z-score: higher = more LDL uptake after knockdown
- Active means: 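a gene counts as active if at least two replicate z-scores exceed ±2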

no.	gene	robust z-score, replicate 1	robust z-score, replicate 2	robust z-score, replicate 3	call
1	HECTD3 (HECT domain E3 ubiquitin protein ligase 3)	1.01	1.01	1.11	inactive
2	ZKSCAN4 (zinc finger with KRAB and SCAN domains 4)	-0.72	-0.591	-0.281	inactive
3	TSPYL5 (TSPY like 5)	0.548	-0.0431	-0.0654	inactive
4	GUK1 (guanylate kinase 1)	1.25	-0.198	0.348	inactive
5	ZNF239 (zinc finger protein 239)	0.406	0.776	0.0504	inactive
6	NUP210 (nucleoporin 210)	-0.147	-0.336	-0.228	inactive
7	TMEM257 (retired record)	-0.416	-0.489	-0.585	inactive
8	LOC390614 (relaxin family peptide receptor 3 pseudogene)	0.0839	0.169	-0.634	inactive
9	LOC388617 (retired record)	0.157	0.724	0.733	inactive
10	MTARC1 (mitochondrial amidoxime reducing component 1)	-0.74	-0.952	-1.17	inactive
11	SEC61A1 (SEC61 translocon subunit alpha 1)	-1.87	-0.00608	-0.487	inactive
12	MUC15 (mucin 15, cell surface associated)	0.741	0.287	0.697	inactive
13	LOC145414 (retired record)	0.0949	-0.56	-0.146	inactive
14	TXNRD2 (thioredoxin reductase 2)	-1.71	-1.56	-1.64	inactive
15	CNGB3 (cyclic nucleotide gated channel subunit beta 3)	1.4	2.24	2.7	active
16	TBL2 (transducin beta like 2)	0.605	0.729	0.0574	inactive
17	ETNK1 (ethanolamine kinase 1)	0.795	1.42	1.31	inactive
18	THOC3 (THO complex subunit 3)	-0.582	-0.961	-0.942	inactive
19	LINC00544 (long independently transcribed non-coding RNA 544)	0.578	1.12	0.844	inactive
20	SMO (smoothened, frizzled class receptor)	0.725	0.924	0.866	inactive
21	L2HGDH (L-2-hydroxyglutarate dehydrogenase)	-0.585	-0.938	-0.931	inactive
22	FZD3 (frizzled class receptor 3)	-1.34	-1.24	-1.06	inactive
23	PNPLA8 (patatin like domain 8, phospholipase A2)	1.61	0.717	1.1	inactive
24	GLA (galactosidase alpha)	-0.139	-0.296	-0.317	inactive
25	DYNLRB1 (dynein light chain roadblock-type 1)	-0.831	-0.0966	-0.329	inactive
26	FAF2 (Fas associated factor family member 2)	-0.302	2.15	-0.903	inactive
27	DIAPH2 (diaphanous related formin 2)	0.586	1.07	-0.975	inactive
28	DPF1 (double PHD fingers 1)	0.903	0.913	1.59	inactive
29	DHPS (deoxyhypusine synthase)	-2.61	-2.15	-1.95	active
30	TSPYL6 (TSPY like 6)	1.13	1.37	1.41	inactive
31	MRC1 (mannose receptor C-type 1)	0.608	0.779	0.406	inactive
32	ZFP91 (ZFP91 zinc finger protein, atypical E3 ubiquitin ligase)	-1.01	-0.666	-0.785	inactive
33	LRRC32 (leucine rich repeat containing 32)	-0.0481	0.549	-0.0989	inactive
34	CLDN15 (claudin 15)	0.497	0.435	0.387	inactive
35	PRSS21 (serine protease 21)	0.249	0.291	0.301	inactive
36	LMNTD1 (lamin tail domain containing 1)	-0.175	0.797	0.0525	inactive
37	SON (SON DNA and RNA binding protein)	-0.704	0.8	-0.596	inactive
38	BMS1P1 (BMS1 pseudogene 1)	0.776	0.876	0.758	inactive
39	AHSG (alpha 2-HS glycoprotein)	1.38	-0.0932	0.305	inactive
40	CBY1 (chibby 1, beta catenin antagonist)	-0.556	-0.806	-1.67	inactive
41	S100A7 (S100 calcium binding protein A7)	0.119	0.579	0.391	inactive
42	SLC25A11	3.7	3.71	4.4	active
43	FBXW11 (F-box and WD repeat domain containing 11)	0.636	-0.699	0.748	inactive
44	CWF19L2 (CWF19 like cell cycle control factor 2)	0.435	0.706	0.49	inactive
45	ZNF615 (zinc finger protein 615)	0.953	1	0.501	inactive
46	FLRT3 (fibronectin leucine rich transmembrane protein 3)	2.38	1.11	1.9	active

In a second layout: results already given.
{"gene":"ZFP91 (ZFP91 zinc finger protein, atypical E3 ubiquitin ligase)","robust z-score, replicate 1":-1.01,"robust z-score, replicate 2":-0.666,"robust z-score, replicate 3":-0.785,"call":"inactive"}
{"gene":"LRRC32 (leucine rich repeat containing 32)","robust z-score, replicate 1":-0.0481,"robust z-score, replicate 2":0.549,"robust z-score, replicate 3":-0.0989,"call":"inactive"}
{"gene":"CLDN15 (claudin 15)","robust z-score, replicate 1":0.497,"robust z-score, replicate 2":0.435,"robust z-score, replicate 3":0.387,"call":"inactive"}
{"gene":"PRSS21 (serine protease 21)","robust z-score, replicate 1":0.249,"robust z-score, replicate 2":0.291,"robust z-score, replicate 3":0.301,"call":"inactive"}
